The results in this text go back to paper PMC11189632.

The assay concerns the target T1, HCMV glycoprotein US10, untagged, transiently expressed (human cytomegalovirus (HCMV) AD169) (UniProt P09728).
T1 sequence: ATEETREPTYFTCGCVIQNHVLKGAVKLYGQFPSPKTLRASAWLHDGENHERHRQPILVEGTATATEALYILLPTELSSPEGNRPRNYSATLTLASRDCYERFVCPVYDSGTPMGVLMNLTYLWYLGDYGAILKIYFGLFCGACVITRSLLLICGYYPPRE
The assay can be described thus: co-IP; anti-US10 rabbit antiserum precipitation from wild-type or HLA-I KO HeLa cells transiently transfected with US10 and tapasin; 35S labelling 3 hr; digitonin lysate.

No constants are given. Whether binding was seen depends on the method and setting. In cells and extracts the contact can be indirect. Some results given as binding are weak or reduced against the parent protein; the word gives no strength. Tags and fused reporters may be left off the sequences shown.

For the substance “tapasin, overexpressed (wild-type sequence in pcDNA3.1) (from UniProt O15533 21-448)”, the binding entry was “binds”.
